# Percent effect of library compounds

The chains behind the UniProt entries cited, without tags or fusion partners. Residues count along the entry.
UniProt A4I591, 1-473: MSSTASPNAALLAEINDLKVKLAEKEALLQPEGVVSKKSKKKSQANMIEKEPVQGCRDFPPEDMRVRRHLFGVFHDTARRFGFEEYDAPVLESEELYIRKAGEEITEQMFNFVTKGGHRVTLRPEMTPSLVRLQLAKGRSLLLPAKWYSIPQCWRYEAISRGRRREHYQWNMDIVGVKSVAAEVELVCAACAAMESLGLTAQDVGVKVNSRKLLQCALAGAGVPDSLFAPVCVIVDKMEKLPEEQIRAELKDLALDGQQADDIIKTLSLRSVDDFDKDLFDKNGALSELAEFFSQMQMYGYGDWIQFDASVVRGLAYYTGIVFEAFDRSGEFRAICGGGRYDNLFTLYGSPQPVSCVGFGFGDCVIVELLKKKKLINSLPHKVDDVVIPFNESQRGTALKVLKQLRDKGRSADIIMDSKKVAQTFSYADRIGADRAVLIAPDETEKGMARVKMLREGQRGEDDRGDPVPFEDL
UniProt I6X8D2, whole entry: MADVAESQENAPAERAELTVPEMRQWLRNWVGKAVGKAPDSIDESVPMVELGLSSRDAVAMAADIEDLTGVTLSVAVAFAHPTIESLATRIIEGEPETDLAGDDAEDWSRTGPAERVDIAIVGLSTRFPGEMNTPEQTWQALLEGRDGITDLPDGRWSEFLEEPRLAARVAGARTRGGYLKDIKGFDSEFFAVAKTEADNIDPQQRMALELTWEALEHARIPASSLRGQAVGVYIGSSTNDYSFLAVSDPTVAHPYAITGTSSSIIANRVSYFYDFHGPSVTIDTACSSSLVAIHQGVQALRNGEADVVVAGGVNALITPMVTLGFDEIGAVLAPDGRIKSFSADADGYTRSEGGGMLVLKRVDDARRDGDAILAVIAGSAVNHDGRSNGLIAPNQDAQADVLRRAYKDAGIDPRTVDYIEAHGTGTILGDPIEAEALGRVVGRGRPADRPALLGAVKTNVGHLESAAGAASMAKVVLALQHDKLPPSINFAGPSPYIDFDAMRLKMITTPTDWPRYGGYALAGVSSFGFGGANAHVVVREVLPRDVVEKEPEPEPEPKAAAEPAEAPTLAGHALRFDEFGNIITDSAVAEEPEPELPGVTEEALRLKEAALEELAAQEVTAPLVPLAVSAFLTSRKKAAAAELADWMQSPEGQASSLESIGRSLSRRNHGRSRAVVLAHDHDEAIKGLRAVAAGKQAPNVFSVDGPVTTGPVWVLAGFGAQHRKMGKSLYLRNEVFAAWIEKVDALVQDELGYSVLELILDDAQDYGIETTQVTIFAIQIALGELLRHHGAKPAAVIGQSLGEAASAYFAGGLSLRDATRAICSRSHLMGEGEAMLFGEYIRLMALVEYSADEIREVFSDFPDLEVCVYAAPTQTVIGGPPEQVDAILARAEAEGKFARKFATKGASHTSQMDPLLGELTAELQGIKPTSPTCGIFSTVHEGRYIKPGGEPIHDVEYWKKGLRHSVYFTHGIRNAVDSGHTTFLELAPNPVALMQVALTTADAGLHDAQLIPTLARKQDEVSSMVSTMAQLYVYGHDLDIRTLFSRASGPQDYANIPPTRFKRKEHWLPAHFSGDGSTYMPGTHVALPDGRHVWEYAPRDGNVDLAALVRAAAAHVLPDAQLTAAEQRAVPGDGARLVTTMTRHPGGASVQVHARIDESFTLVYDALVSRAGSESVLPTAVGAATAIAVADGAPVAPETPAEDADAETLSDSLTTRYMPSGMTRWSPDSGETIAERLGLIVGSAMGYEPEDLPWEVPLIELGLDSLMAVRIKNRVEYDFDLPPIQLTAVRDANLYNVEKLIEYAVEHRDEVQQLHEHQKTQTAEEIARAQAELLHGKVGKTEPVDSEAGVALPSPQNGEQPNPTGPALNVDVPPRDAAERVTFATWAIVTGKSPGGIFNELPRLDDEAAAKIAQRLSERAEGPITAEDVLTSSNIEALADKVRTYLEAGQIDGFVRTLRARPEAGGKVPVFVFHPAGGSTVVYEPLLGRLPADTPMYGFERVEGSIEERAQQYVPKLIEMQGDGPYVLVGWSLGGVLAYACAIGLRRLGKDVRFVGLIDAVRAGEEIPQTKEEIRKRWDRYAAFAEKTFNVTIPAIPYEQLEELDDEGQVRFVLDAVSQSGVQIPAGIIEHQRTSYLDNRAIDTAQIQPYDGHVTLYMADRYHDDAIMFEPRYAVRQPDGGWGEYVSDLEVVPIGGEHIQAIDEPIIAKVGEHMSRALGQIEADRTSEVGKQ

Data taken from ChEMBL document CHEMBL3988442, “University of Dundee, Small-Polar-MMV Screening Library” (2021).

LiHisRS: 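Histidine-tRNA ligase, Leishmania infantum (UniProt A4I591). Enzyme assay of histidyl-tRNA synthetase; the read-out is not stated. Compounds at 30 µM. Higher reads as stronger inhibition (inferred: compounds with an IC50 in retests scored well above the rest). The assay is labelled LdHisRS but filed under L. infantum. Size under these conditions: about 69,000 compounds, about 410 of them at 50% or above in at least one test.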
Pks13 thioesterase: 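Polyketide synthase Pks13, Mycobacterium tuberculosis (UniProt I6X8D2). Enzyme assay of the thioesterase domain of polyketide synthase 13; the read-out is not stated. Compounds at 30 µM. The record gives no direction; the compounds picked for IC50 retests had high values, so higher reads as stronger inhibition. Size under these conditions: about 67,000 compounds, about 300 of them at 50% or above in at least one test.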
Leishmania in macrophages: 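Cell assay of Leishmania donovani living inside macrophages; the read-out is not stated. Tested at 30 µM. The record gives no direction; compounds that gave an IC50 in retests scored well above the rest, so higher reads as stronger inhibition. Of about 69,000 compounds tested this way, about 1,000 (1.5%) reached 50% or more in at least one test.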

The filed quantity is “Percent Effect” (%).
The record does not define 0% and 100%; most values in the screen are far below 50% and negative numbers occur (in some assays of this library far below -100).
This is an unselected part of the compounds tested.
A dash means the value is not listed here; it may have been measured.

Compound,LiHisRS,Pks13 thioesterase,Leishmania in macrophages
COc1ccccc1OCC(=O)N1C[C@@H]2CN(C)CCO[C@@H]2C1,15.52,0.8643,-
O=C(O)C(F)(F)F.O=C(O)C(F)(F)F.[H][C@@]12CN(Cc3ccsc3)CCC[C@]1(C(=O)O)CN(CCOC)C2,-,-,14.2
CC(C)c1nc(CN(C)C(=O)c2cn3ccsc3n2)cs1,12.24,3.148,-3.628
CSCCC(=O)N1CCN(CC(C)(C)O)CC1,-54.9,6.445,-20.96
Cc1cc(C(=O)NC2CCN(c3nnc(C)c(C)c3C#N)CC2)no1,11.4,-16.53,1.397
[H][C@]12CCCC(N(C)Cc3cccs3)[C@@]1([H])CN(C(=O)c1cccn1C)C2 (stereo partly shown),-,-,-4.168
Cn1cc(N2CCC(NC(=O)c3ccccc3F)C2=O)cn1 (stereo not shown),13.11,29.85,6.364
Cc1nc(C)c(C(=O)N2CCc3nc4c(C)csc4c(=O)n3CC2)s1,10.14,0.05674,-
CC(O)CN1CCN(C(=O)c2ccc(Cn3cccc3)cc2)CC1 (stereo not shown),35.71,-,33.75
CCOC(=O)Cc1cs/c(=N/C(=O)COc2cnc(C)cc2O)[nH]1,-5,-8.797,-0.1846
CCOC[C@@H]1CCC[C@@]12CN(Cc1cccnc1)CCO2,18,-4.853,20.43
[H][C@@]12C[C@H](C(=O)NC3CCC3)C[C@@]1([H])OCCN2,-,-,13.25
CCc1ccc(CNC(=O)CCNc2ncccn2)s1,7.895,0.8092,-9.299
[H][C@@]12CCC(=O)N(CCc3ccccn3)[C@]1([H])CCN(c1ncc(F)cn1)C2,-,-,-17.99
CC(CNC(=O)Nc1cn[nH]c1)N1CCCC1 (stereo not shown),16.81,-23.34,4.879
CCC(=O)NC1CCN(c2cccc(OC(F)(F)F)c2)C1=O (stereo not shown),11.61,-13.18,5.056
Cc1nc(O)cc(CN2C[C@H](NS(=O)(=O)N(C)C)[C@@H](C3CC3)C2)n1,11.76,-1.887,-13.45
O=C(O)C(F)(F)F.[H][C@@]12CCN(S(C)(=O)=O)CC[C@]1(C(=O)Nc1ccccc1)CCN2CC,-,-,1.706
O=C(Cc1ccc2c(c1)OCO2)N1CCN(c2ccccc2Cl)C(=O)C1,20.43,0.4605,-0.8442
CC1(Cc2ccc(F)cc2)Cc2cc(C(=O)NCCO)ccc2O1 (stereo not shown),8.633,11.88,-19.95
O=C(CCCN1CCCCC1)NC(C(=O)O)c1cccc(F)c1 (stereo not shown),8.85,0.043,12.58
O=C(COc1cccc2c1CCC2=O)NCCSc1ccccc1,22.86,-14.44,35.28
COc1ccc(C(C)Nc2ncnc3c2NC(=O)CN3)cc1 (stereo not shown),16.05,5.048,6.286
O=C(O)C(F)(F)F.[H][C@@]12C[C@@H](C(=O)NC(C)C)C[C@@]1([H])N(Cc1cccs1)CCO2,-,-,-1.114
Cc1cc2c(=O)n3c(nc2s1)CCN(Cc1cnn(C)c1C)CC3.Cl,-,-,15.79
c1ccc(Cc2noc(CN3CCCCC3Cn3cccn3)n2)cc1 (stereo not shown),6.957,0.03671,-8.725
Cc1cc(C)c(CNC(=O)NCC2Cc3ccccc32)c(=O)[nH]1 (stereo not shown),13.51,-1.566,6.039
O=C(NCc1cccnc1)N1CCC2(CC(=O)N(c3ccsc3)C2)C1 (stereo not shown),21.1,-16.37,-
Cc1nn(C)c2cnn(CC(=O)NCc3ccc4c(c3)OCO4)c12,5.172,0.7791,-24.52
O=C(O)C(F)(F)F.O=C(O)C(F)(F)F.O=C(O)C(F)(F)F.[H][C@@]12CN(Cc3cnn(C)c3)C[C@]1([H])OCCN2CCN(C)C,-,-,11.57
c1nc2c(c(-c3ccsc3)n1)CCN(Cc1ccoc1)CC2,-1.923,-7.909,-
COc1cccc2c1OCC(C(=O)NC1CCN(S(C)(=O)=O)CC1)C2 (stereo not shown),3.81,47.49,-14.72
N#Cc1cccc(S(=O)(=O)NC(=O)CCOCC(F)(F)F)c1,24.66,-4.382,-26.63
CCS(=O)(=O)N1CCN(C(=O)c2cnc3[nH]nc(C)c3c2)CC1,4.386,-3.218,-0.02033
CCc1nc2ccccc2c(=O)n1CC1(O)CCN(C(=O)COC)CC1.Cl,-,-,-1.032
CC(C)Nc1nc(O)cc(C2CC(=O)N(C3CCCCC3)C2)n1 (stereo not shown),14.39,18.86,1.473
Cc1ccoc1C(=O)NC1CCN(Cc2ccccc2F)CC1,6.087,-22.22,18.81
Cc1nc(CNC(C(=O)N2CCOCC2)C(C)C)no1 (stereo not shown),0.8547,-21.46,14.15
COCCC(=O)N1CCCC2(CCN(c3ccccc3)C2=O)C1 (stereo not shown),-84.62,-33.4,-5.505
O=C(NCC1CCOCC1)c1cc(-c2cccnc2)c2cnccc2n1,4.286,0.4778,-1.327
CCN(CC1CN(Cc2ccn(C(C)C)n2)CCO1)c1cccnn1 (stereo not shown),11.61,-7.439,29.07
CSCCC(NC(=O)c1ccc2ccccc2n1)C(=O)NC(C)C (stereo not shown),4,-1.64,13.7
O=C(NC1CC1)c1nc2c(o1)CN(c1ncccn1)C2,-3.448,-22.8,21.44
CCn1ncc(C(=O)NCCc2nc(-c3ccncc3)n[nH]2)c1C,7.092,-4.65,14.66
Cc1c(NC(=O)N(C)CCn2cnnc2)cccc1OC1CCCC1,3.109,-39.46,10.98
FC(F)(F)C1CN(Cc2cnc3c(-c4ccccc4)cnn3c2)CCO1 (stereo not shown),14.04,-11.11,10.5
COc1cccc(N2CCN(C(=O)CCO)CC2=O)c1,-16.98,11.77,4.116

Repeated from the top, 5 entries:

Result for COc1ccccc1OCC(=O)N1C[C@@H]2CN(C)CCO[C@@H]2C1 was LiHisRS: 15.52%; Pks13 thioesterase: 0.8643%.
Result for O=C(O)C(F)(F)F.O=C(O)C(F)(F)F.[H][C@@]12CN(Cc3ccsc3)CCC[C@]1(C(=O)O)CN(CCOC)C2 was Leishmania in macrophages: 14.2%.
Result for CC(C)c1nc(CN(C)C(=O)c2cn3ccsc3n2)cs1 was LiHisRS: 12.24%; Pks13 thioesterase: 3.148%; Leishmania in macrophages: -3.628%.
Result for CSCCC(=O)N1CCN(CC(C)(C)O)CC1 was LiHisRS: -54.9%; Pks13 thioesterase: 6.445%; Leishmania in macrophages: -20.96%.
Result for Cc1cc(C(=O)NC2CCN(c3nnc(C)c(C)c3C#N)CC2)no1 was LiHisRS: 11.4%; Pks13 thioesterase: -16.53%; Leishmania in macrophages: 1.397%.